Measured values from paper PMC11339278 (2024).
These are yes or no findings as the source states them, for the method shown. For some assays here: Binding calls can cover weak binding; strength is not graded here.

Amino acid sequences for entries named in this document (tags omitted). A change or cut given only in a name is not applied to a line headed by its entry.
UniProt Q15036: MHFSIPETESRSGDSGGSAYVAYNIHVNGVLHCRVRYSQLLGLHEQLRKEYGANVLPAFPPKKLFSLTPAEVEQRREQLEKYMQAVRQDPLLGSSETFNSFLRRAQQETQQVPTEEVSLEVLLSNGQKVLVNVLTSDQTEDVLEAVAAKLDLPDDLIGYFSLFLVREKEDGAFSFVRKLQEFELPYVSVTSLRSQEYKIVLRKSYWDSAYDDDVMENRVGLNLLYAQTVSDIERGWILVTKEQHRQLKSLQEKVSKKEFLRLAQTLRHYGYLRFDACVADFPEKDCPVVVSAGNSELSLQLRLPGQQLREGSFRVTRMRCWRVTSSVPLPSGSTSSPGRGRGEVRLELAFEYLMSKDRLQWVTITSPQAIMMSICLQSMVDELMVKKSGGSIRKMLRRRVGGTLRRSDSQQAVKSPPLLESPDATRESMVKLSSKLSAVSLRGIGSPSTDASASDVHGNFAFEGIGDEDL

Tests used:
[1] = target: SNX17ΔC (residue 1-390) with an intramolecular decaHis tag (human) (UniProt Q15036); experiment: condition: only SNX17ΔC saturated with LRP1 peptide (from a previous ITC run); ITC; 2 mM SNX17 tail peptide injected into 20 μM SNX17ΔC saturated with LRP1 peptide (from a previous ITC run); 10 °C; 500 mM NaCl, 100 mM Tris pH 8.0, 5% glycerol; both purified
[2] = target: SNX17ΔC (residue 1-390) with an intramolecular decaHis tag (human) (UniProt Q15036); experiment: ITC; Microcal PEAQ, 10 °C, 500 mM NaCl, 100 mM Tris pH 8.0, 5% glycerol; 250 µM APP or LRP1 peptide, or 2 mM SNX17 tail peptide, injected into 20 µM SNX17 FL or SNX17ΔC; single site binding model; both purified
[3] = target: SNX17ΔC (residue 1-390) with an intramolecular decaHis tag (human) (UniProt Q15036); experiment: condition: only SNX17ΔC pre-incubated (saturated) with the LRP1 peptide; 2 mM tail peptide into 20 µM SNX17ΔC; ITC; as a4, but 2 mM SNX17 tail peptide injected into 20 µM SNX17ΔC saturated with LRP1 peptide (from a previous ITC run); both purified

B1: SNX17 tail synthetic peptide (452-470) (peptide, UniProt Q15036 452-470)
peptide: SASDVHGNFAFEGIGDEDL
binding [1]: no binding

B2: LRP1 cargo recognition peptide (4466-4479) (peptide)
peptide: VEIGNPTYKMYEGG
binding [2]: binds

B3: APP cargo recognition peptide (755-768) (peptide)
peptide: NGYENPTYKFFEQM
binding [2]: binds

B4: synthetic peptide of the SNX17 tail (452-470) (peptide)
peptide: SASDVHGNFAFEGIGDEDL
binding [3]: no binding | binding [2]: binds weakly
